In patent publication US6713490B2, “3,4-dihydroquinolin-2(1H)-one compounds as NR2B receptor antagonists” (Pfizer, Inc., priority 2002, dated 2004):
Where a name gives a salt, the structure may show the parent alone. Some results were stated once for a whole list of compounds, not compound by compound. Some compounds share one range, which may span the group rather than tell each member.

Chains of the proteins cited; added tags and fusions are not shown. Lines headed by an entry give the natural chain unless they say otherwise; changes in a name come on top.
UniProt Q12809: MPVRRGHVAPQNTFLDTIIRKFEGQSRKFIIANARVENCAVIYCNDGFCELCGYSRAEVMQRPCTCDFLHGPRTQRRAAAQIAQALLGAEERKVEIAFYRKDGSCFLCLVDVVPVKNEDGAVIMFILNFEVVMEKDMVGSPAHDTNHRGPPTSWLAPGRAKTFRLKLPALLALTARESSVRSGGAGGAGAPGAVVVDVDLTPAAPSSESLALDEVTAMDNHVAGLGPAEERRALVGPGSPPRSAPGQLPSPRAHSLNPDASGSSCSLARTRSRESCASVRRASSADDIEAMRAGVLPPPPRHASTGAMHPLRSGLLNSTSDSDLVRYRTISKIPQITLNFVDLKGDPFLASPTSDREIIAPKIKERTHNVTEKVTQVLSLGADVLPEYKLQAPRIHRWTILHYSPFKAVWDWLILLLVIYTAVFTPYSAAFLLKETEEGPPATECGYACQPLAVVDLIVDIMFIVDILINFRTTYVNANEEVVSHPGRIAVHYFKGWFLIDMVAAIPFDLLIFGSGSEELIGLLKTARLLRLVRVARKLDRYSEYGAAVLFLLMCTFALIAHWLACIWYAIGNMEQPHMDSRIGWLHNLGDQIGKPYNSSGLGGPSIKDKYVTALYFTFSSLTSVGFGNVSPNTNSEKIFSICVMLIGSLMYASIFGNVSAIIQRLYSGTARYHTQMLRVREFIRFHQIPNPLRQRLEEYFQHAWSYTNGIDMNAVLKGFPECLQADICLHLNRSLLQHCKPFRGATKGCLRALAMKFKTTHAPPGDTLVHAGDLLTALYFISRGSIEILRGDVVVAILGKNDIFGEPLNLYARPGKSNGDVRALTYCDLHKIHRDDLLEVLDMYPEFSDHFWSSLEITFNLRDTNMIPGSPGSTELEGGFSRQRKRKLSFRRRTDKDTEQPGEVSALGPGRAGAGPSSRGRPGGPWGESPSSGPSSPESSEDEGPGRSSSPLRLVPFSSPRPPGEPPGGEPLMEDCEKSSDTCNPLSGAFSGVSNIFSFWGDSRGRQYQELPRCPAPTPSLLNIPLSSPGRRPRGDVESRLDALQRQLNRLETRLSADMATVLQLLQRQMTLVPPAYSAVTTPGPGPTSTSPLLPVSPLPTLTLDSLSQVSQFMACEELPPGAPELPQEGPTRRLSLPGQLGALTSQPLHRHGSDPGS

Target: T1, HERG potassium channel (Homo sapiens, UniProt Q12809)
T1 construct: expressed in transfected cells; host or cells: HEK-293
Assay: Dofetilide binding assay ([3H]-dofetilide competition, membranes of HEK-293 cells expressing the HERG product)
Details: TI = Dofetilide Binding Ki [μM]/NR2B Binding Ki [nM] x 1000

| Structure (SMILES) | TI (Defetilide/NR2B) |
| --- | --- |
| COc1cccc(C2(O)CCN(CC(O)c3ccc4c(c3)CCC(=O)N4)CC2)c1 (stereo not drawn) [Example 2, 6-{1-Hydroxy-2-[4-hydroxy-4-(3-methoxyphenyl)-1-piperidinyl]ethyl}-3,4-dihydroquinolin-2(1H)-one Hydrochloride] | 1300-2900 |
| COc1cccc(C2(O)CCN(CC(O)c3ccc4c(c3F)CCC(=O)N4)CC2)c1 (stereo not drawn) [Example 3, 5-Fluoro-6-{1-hydroxy-2-[4-hydroxy-4-(3-methoxyphenyl)-1-piperidinyl]ethyl}-3,4-dihydroquinolin-2(1H)-one hydrochloride] | 1300-2900 |
| Cc1cccc(C2(O)CCN(CC(O)c3ccc4c(c3)CCC(=O)N4)CC2)c1 (stereo not drawn) [Example 4, 6-[1-Hydroxy-2-[4-hydroxy-4-(3-methylphenyl)piperidin-1-yl]ethyl]-3,4-dihydroquinolin-2(1H)-one mesylate] | 1300-2900 |
